Data reported in PubChem BioAssay AID1347426 (Functional Genomics Laboratory (NCATS/FGL), 2020).
The campaign covered roughly 31,000 sequences. About 1,400 (4.5%) were called active.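 How the source made its calls: active means median seed-adjusted z-score above 1 or below -1; inactive means the rest.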 Some of the results follow.

Assay: Novel Modifiers of Survival Motor Neuron (SMN) Protein: Gene Identification via Genome-wide siRNA Screen;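 further: luminescence tracks full-length SMN protein made from the SMN2 reporter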
Conditions: HEK293T SMN2-luciferase reporter, siRNA knockdown, 72 h; actives lie on both sides
Summary of the method: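 siRNA screen, 10418 genes ×3 siRNAs; 1 pmol/well, lipid reverse transfection into HEK293T SMN2-luc reporter line. 72 h, 37 °C, 5% CO2; ONE-Glo readout. Data: neg-ctrl normalized, log10, MAD; hit = MAD >1.0 or < -1.0.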
With GCCUCGUUCUUCGCCUUCATT against MALL the median seed-adjusted z-score was inactive: -0.477.
In the case of CCUCUAACAUUGGUUCCAATT against XPNPEP1, the median seed-adjusted z-score was active: -1.5.
For CCAUCGUGUUACUUAGCAATT against ZNF280A, the median seed-adjusted z-score was inactive: -0.207.
For GGAAGGCUAUGGAACUAGATT against ARID1B, the median seed-adjusted z-score was inactive: 0.108.
For AGGAAAAGCUGGAACGGGUTT against DPP3, the median seed-adjusted z-score was inactive: -0.261.
With GCCUAGAAGUGGAACGUGUTT against IFT57 the median seed-adjusted z-score was active: -1.1.
For GCAGCUACGUCACACACGATT against DYNLL2, the median seed-adjusted z-score was inactive: -0.201.
With CCUGGUUAUUGAGAAAGCATT against CAPN11 the median seed-adjusted z-score was inactive: -0.273.
For GGCUAUUCUUCUGUUAUUATT against KISS1R, the median seed-adjusted z-score was inactive: -0.299.
For GCCUAACUAUGGGACAGCUTT against GABARAPL2, the median seed-adjusted z-score was inactive: 0.528.
In the case of GCUGGAUUCCUAUAUACCATT against SGPP1, the median seed-adjusted z-score was inactive: 0.0859.
For GGUAUUAUCGGGAACCAUUTT against GPR161, the median seed-adjusted z-score was inactive: -0.138.
In the case of GGUUGAUGCUAAUAGCUCUTT against SRCAP, the median seed-adjusted z-score was inactive: -0.42.
With GAGAGGCUCAGAUAAAGUGTT against VSX1 the median seed-adjusted z-score was inactive: -0.91.
With GCAUCUCUGAGAAGAUCUATT against P11 the median seed-adjusted z-score was inactive: 0.14.
In the case of CGACUGAUUACAUACCGGUTT against TRIM24, the median seed-adjusted z-score was inactive: -0.22.
In the case of GCAUCAUCCGGAAGCCAGATT against SPDEF, the median seed-adjusted z-score was inactive: -0.607.
In the case of GACUCAUAUGGACCAGUUATT against ZNF460, the median seed-adjusted z-score was inactive: -0.302.
For GCUCAACUUUCACCAAUAATT against SLC5A7, the median seed-adjusted z-score was inactive: 0.624.
For GGAAUACUCAGAUCGGGAATT against MAP3K3, the median seed-adjusted z-score was inactive: -0.182.
With CGGAAAUGAUCAUAACCAATT against TBX5 the median seed-adjusted z-score was inactive: 0.143.
In the case of GCAGUAGAAGUAUUUCGUUTT against AGXT2, the median seed-adjusted z-score was inactive: 0.17.
For GGAGAACGGUUUCUUAUAATT against POLN, the median seed-adjusted z-score was inactive: -0.129.
With GGAAAGUGAUGUCAGAAUATT against KRT7 the median seed-adjusted z-score was inactive: 0.
For GGAGUACCUGCAUAACUAUTT against MAST3, the median seed-adjusted z-score was inactive: -0.642.
In the case of GUCUCAGACUUGAUCCGCATT against MSH5, the median seed-adjusted z-score was inactive: -0.444.
With GCUGGUUUGUUACGCCUUUTT against SLC4A10 the median seed-adjusted z-score was inactive: 0.026.
For GGUUUGUGCUUCAACCCAATT against SYTL5, the median seed-adjusted z-score was inactive: 0.192.
With GCCUGGGUCAAAUACAGUATT against KLHL20 the median seed-adjusted z-score was inactive: -0.0828.
In the case of GCAUCGUGGAGCACUCAUATT against APOL3, the median seed-adjusted z-score was inactive: -0.0761.
With CGGUAAUAGCAAUUCAGCATT against HEATR6 the median seed-adjusted z-score was inactive: 0.
In the case of GCUCCCUGCUCAAGACCUATT against TST, the median seed-adjusted z-score was inactive: 0.
With AGCGUGAGAUGGAGCGAAATT against CENTB5 the median seed-adjusted z-score was inactive: 0.183.
With GCAUCGAUCAAUUAUUGGATT against IL7 the median seed-adjusted z-score was inactive: 0.253.
With GGAUGACGGUGUCAUUGGUTT against CLCN4 the median seed-adjusted z-score was inactive: 0.
For CGAGUGUCUUCACUACAAATT against IL3RA, the median seed-adjusted z-score was inactive: -0.951.
In the case of AGUACAUGUUGGUGCGCUATT against CHST1, the median seed-adjusted z-score was inactive: 0.181.
With CAGAGUUUAUUGAUCCUUUTT against ELL2 the median seed-adjusted z-score was inactive: 0.459.
With CGAAUAUACCAGGACGAAATT against SATB1 the median seed-adjusted z-score was inactive: 0.
With CCAGAACUCGGCUUGAAGATT against NPY the median seed-adjusted z-score was inactive: -0.0606.
For CUGGUUCAGUGGAGACAGATT against RNF175, the median seed-adjusted z-score was inactive: 0.127.
For GGUUUUCUCGAAUCCAUGATT against MMP2, the median seed-adjusted z-score was inactive: 0.0467.
With CGCUGAUACUGACUACAGUTT against CNGA4 the median seed-adjusted z-score was inactive: 0.125.
With GUAGAACUGUUACCAUUAATT against POLK the median seed-adjusted z-score was inactive: -0.102.
With GCAAUAAUCUGCAAGUUUUTT against TBX19 the median seed-adjusted z-score was inactive: 0.327.
For AGAUGGAGUUCAUCGACAATT against SRF, the median seed-adjusted z-score was inactive: -0.393.
In the case of GUUCAAAAGAGGCUAAAGATT against DACH1, the median seed-adjusted z-score was inactive: 0.562.
With GGUUCAUCUAAGAACAAGATT against PKNOX1 the median seed-adjusted z-score was inactive: 0.68.
In the case of AGACCAUCGAAGAUUUCCATT against KRT36, the median seed-adjusted z-score was inactive: 0.766.
With CAGAGAUCUUGGAUCGCUATT against PCDH15 the median seed-adjusted z-score was inactive: -0.712.
For CGUACGCUACUUUCUCUUUTT against GPRC5D, the median seed-adjusted z-score was inactive: -0.038.
For AGUCAAGAACAAUACCCAATT against SNRPD2, the median seed-adjusted z-score was inactive: -0.849.
For GGAACAAGUAUUUAGGAAATT against CAPSL, the median seed-adjusted z-score was inactive: -0.168.
For GGACACCAGCGAAAACGAATT against KIF5A, the median seed-adjusted z-score was inactive: -0.348.
